Source: paper PMC8634480
These are yes or no findings as the source states them, for the method shown. Binding seen in cells or lysates may run through a third protein. Some binding calls cover weakened binding; strength is not graded here. Tags and fused reporters may be left off the sequences shown.

The chains behind the UniProt entries cited, without tags or fusion partners.
UniProt Q8TDY2: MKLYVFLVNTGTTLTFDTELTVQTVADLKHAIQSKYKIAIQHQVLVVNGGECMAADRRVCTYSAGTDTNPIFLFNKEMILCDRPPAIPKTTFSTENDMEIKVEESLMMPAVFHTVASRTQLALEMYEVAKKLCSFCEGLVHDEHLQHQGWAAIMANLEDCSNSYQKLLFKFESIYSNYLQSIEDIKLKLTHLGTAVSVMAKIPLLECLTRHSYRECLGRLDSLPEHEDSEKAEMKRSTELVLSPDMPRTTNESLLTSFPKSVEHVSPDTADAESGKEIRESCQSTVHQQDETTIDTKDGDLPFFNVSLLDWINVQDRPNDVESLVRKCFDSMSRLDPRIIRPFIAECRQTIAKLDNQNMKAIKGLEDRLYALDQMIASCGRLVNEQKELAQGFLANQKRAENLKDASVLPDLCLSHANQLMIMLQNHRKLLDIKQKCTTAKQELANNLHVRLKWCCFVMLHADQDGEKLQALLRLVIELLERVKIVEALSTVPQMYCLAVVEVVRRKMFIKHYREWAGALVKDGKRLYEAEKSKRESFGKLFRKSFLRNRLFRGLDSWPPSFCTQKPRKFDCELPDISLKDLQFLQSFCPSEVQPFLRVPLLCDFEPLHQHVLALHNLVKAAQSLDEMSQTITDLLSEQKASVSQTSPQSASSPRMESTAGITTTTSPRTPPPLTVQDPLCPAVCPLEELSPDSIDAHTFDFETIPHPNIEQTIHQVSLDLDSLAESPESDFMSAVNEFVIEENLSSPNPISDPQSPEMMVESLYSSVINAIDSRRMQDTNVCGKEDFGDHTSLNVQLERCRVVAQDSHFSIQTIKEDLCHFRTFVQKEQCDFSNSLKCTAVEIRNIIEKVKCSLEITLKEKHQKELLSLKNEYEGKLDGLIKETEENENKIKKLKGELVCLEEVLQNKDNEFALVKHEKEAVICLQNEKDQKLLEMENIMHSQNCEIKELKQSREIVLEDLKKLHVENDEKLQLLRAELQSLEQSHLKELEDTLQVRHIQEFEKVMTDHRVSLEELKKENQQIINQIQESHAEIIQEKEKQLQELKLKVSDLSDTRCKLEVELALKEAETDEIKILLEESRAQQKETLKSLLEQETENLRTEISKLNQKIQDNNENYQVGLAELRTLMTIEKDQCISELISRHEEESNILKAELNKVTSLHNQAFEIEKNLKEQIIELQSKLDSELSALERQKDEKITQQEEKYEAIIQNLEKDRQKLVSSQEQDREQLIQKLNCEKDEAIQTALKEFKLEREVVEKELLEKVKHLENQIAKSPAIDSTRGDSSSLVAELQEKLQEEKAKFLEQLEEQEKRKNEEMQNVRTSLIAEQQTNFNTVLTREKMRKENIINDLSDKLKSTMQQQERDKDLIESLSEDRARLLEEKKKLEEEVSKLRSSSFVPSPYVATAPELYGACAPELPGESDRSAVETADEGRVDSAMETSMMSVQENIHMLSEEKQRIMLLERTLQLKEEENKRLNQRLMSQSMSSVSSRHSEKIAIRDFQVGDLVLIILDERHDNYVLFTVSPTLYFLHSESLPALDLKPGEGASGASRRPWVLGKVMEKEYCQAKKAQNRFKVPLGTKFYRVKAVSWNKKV

Target: T1, GFP-HSBP1 (heat shock factor binding protein 1 fused to EGFP) (UniProt O75506)
T1 sequence: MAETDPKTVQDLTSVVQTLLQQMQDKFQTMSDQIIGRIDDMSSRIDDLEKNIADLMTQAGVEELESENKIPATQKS
Test: co-IP; GFP-trap beads on lysates of U2OS cells stably or transiently expressing GFP-HSBP1; beads with lysate 2 h at 4°C; lysis buffer 20 mM Tris-HCl pH 7.4, 150 mM NaCl, 2 mM MgCl2, 5 mM DTT, 0.5% Tween; wash with 250 mM NaCl; western blot; cells untreated, with control siRNA or siULK1, in EBSS for 2 h or infected with EMCV for 6 h

binding: binds
Substance: RB1 inducible coiled-coil 1 (FIP200/RB1CC1) (from UniProt Q8TDY2 1-1594)
